Reference: PubChem BioAssay AID2685 (National Center for Advancing Translational Sciences (NCATS), 2010)
The list shows a part of the results. These are further read-outs of the screen, such as a control signal, another cell line or another target. No call is given for them. The list favours compounds with an active or inconclusive main result. The note in brackets gives the kind of curve behind each potency; many fits are weak.

Assay: qHTS Assay for Lipid Storage Modulators in Drosophila S3 Cells;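 for cell number change: cells counted by Cell Tracker Red CMTPX staining in the red channel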
Conditions: BODIPY lipid droplet fluorescence, 18-24 h; for cell number change: measured here: cell count max response, cells fed with added oleic acid
How it was run: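 Laser-scanning cytometry quantifies lipid droplet accumulation (500–530 nm total intensity; droplet/cell object ratio) in oleic acid-fed (400 uM added) Drosophila S3 cells treated with a concentration series. 20 uM Triacsin C defined 100% inhibition.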

[1] = measured here: cell number channel AC50, cells fed with added oleic acid
[2] = measured here: lipid fluorescence (Fed channel) AC50, cells fed with added oleic acid

Compound	cell number change [%]	AC50 [1]	AC50 [2]
CCc1ccc(C(=O)C(C)OC(=O)c2nc3nc(C)cc(C)n3n2)cc1 (stereo not given)	31	10.3 µM [rising, partial curve, poor fit]	
O=C(Nc1ccc2c3c(cccc13)CC2)c1ccco1	-14.2		1.64 µM [rising, full curve, poor fit]
O=C(CSC(=S)N1CCOCC1)Nc1nccs1	9.9		
Cn1c(SCC(=O)NCc2ccccc2)nc2c([nH]c3ccccc32)c1=O			0.00517 µM [rising, full curve, poor fit]
CC1CCN(C(=O)COC(=O)CCc2c[nH]c3ccccc23)CC1	-32.9	2.31 µM [falling, full curve, poor fit]	0.00517 µM [falling, full curve, poor fit]
CCOc1ccc(-c2c(C(=O)N/N=C/c3ccc(OC)cc3)nnn2-c2nonc2N)cc1	8.91		3.66 µM [rising, single point]
CCOc1ccc(C2(C)CC(=O)N(C)C2=O)cc1 (stereo not given)	11.1		20.6 µM [rising, single point]
COc1ccc(O[C@@H]2O[C@H](COC(C)=O)[C@@H](OC(C)=O)[C@H](OC(C)=O)[C@H]2NC(C)=O)cc1			29.1 µM [rising, single point]
CC1(C)CC(=O)C2=C(C1)N(CCN1CCOCC1)C1=C(C(=O)CC(C)(C)C1)C2c1ccc(Cl)cc1	-13.9	1.64 µM [falling, partial curve]	
CC(=O)Nc1cccc(C(=O)/C=C/c2ccco2)c1	-2.56		14.6 µM [falling, partial curve, poor fit]
CC(C)n1c(NCCc2ccccc2)nc2c1c(=O)n(C)c(=O)n2C	-41.3	10.3 µM [falling, partial curve]	16.4 µM [falling, partial curve]
CC(=O)N1CCc2cc(S(=O)(=O)NC(C(=O)NC(C)c3ccccc3)C(C)C)ccc21 (stereo not given)	-24.8	0.231 µM [falling, full curve, poor fit]	
CSCCC(NC(=O)COc1ccccc1)C(=O)N(C)Cc1ccc(F)cc1 (stereo not given)	-10.6		
O=C(COC(=O)c1n[nH]c(=O)c2ccccc12)Nc1ccccc1	-58		
O=CN1CCN(C(=O)c2ccc3c(c2)OCO3)CC1	-2.02		
O=C(Nc1nnc(C2=COCCO2)o1)c1ccc(Cc2ccccc2)cc1	-33.5	20.6 µM [falling, single point]	
CC1CCN(S(=O)(=O)c2ccc(C(C)C)cc2)CC1	-13.9		0.092 µM [falling, full curve, poor fit]

Gathered by group, those above with an NH in an aromatic ring.
Compound	cell number change [%]	AC50 [1]	AC50 [2]
Cn1c(SCC(=O)NCc2ccccc2)nc2c([nH]c3ccccc32)c1=O			0.00517 µM [rising, full curve, poor fit]
CC1CCN(C(=O)COC(=O)CCc2c[nH]c3ccccc23)CC1	-32.9	2.31 µM [falling, full curve, poor fit]	0.00517 µM [falling, full curve, poor fit]
O=C(COC(=O)c1n[nH]c(=O)c2ccccc12)Nc1ccccc1	-58		
